According to patent US11484576B2, “Methods of promoting corticospinal neuronal outgrowth in neuronal lesions using a pro-regenerative human osteopontin fragment” (THE CHILDREN'S MEDICAL CENTER CORPORATION, priority 2017, dated 2022):
Some of these results come from one statement about several compounds together.

Tested on: mice with T10 lateral hemisection
Assay: Irregular ladder walking after spinal cord T10 lateral hemisection
Type: in vivo, mouse
Details: pilot experiment; i.p.; 4AP 1 and 3 mg/kg, 4AP-MeOH 1 mg/kg
Method: Injury Models. […] Briefly, a midline incision was made over the thoracic vertebrae, followed by a T10 laminectomy. The unilateral hemisection was then performed carefully using both scalpel and micro-scissors, avoiding, to the greatest extent, the damage of the spinal cord dura. The muscle layers were then sutured and the skin was secured with wound clips. All mice received post hoc histological analysis and those with spared CST axons (incomplete lateral hemisection) or with significant less CST axons on the contra-lesional side (over lateral hemisection) at the lumbar spinal cord (L3), exemplified in FIG. 9A, were excluded for behavioral analysis.
Virus and Protein Injection.
Irregular Ladder Walking. […] Briefly, the ladder was elevated 30 cm above the ground. […] All trials were video recorded (Hotshot e64, 100 fps) and paw placement was analyzed twice by blinded observers. […] All other steps were recorded as errors, which included two types: 1) Miss: when crossing the ladder, the forelimb/hindlimb either completely miss the rung or contact the rung with the wrist/heel instead of the paw; 2) Slip: when crossing the ladder, the mice use a few digits instead of the paw to place on the rungs, causing the subsequent slip on the rungs. The results were expressed as both percentage of total errors and percentage of different placement categories (hit, miss and slip). […]

## Nc1ccncc1CO [4-AP-MeOH, 4-aminopyridine-3-methanol]
  time of maximal effects post systematic administration: 1 to 3 h
